Data taken from patent US12593865B2, “Member for flavor inhalation article, flavor inhalation article, phenol scavenger for flavor inhalation article, and method for producing flavor inhalation article” (Japan Tobacco Inc., priority 2019, dated 2026).
Where two headings read alike, the source gives them in different places.

Experiment: Evaluation of migration amount into shreds (sealed screw tube bottle, gas chromatography)
[1] = 0.5 mL substance with 560 mg tobacco shreds in sealed bottle, 3 weeks at 55° C. and 60% RH

## CC(O)CCO (stereo not shown) [1,3-butanediol]
[1]
  Migration Amount into Tobacco Shreds: 0.252 mmol/cig.

## CCOC(=O)CCC(=O)OCC [Diethyl succinate, diethyl succinate]
[1]
  Migration Amount into Tobacco Shreds: 0.105 mmol/cig.

## OCCO [Ethylene glycol, ethylene glycol]
  Migration Amount into Tobacco Shreds: 0.895 mmol/cig.

## CC(O)CO (stereo not shown) [Propylene glycol, propylene glycol]
[1]
  Migration Amount into Tobacco Shreds: 0.774 mmol/cig.
